In patent US20110288154A1, “RNA Interference Mediated Inhibition of Epithelial Sodium Channel (ENaC) Gene Expression Using Short Interfering Nucleic Acid (siNA)” (MERCK & CO., INC., priority 2008, published 2011):
For at least one compound, name, drawing or mass did not settle the structure.

How the values were obtained:
TLR7 = target: T1, TLR7 (Homo sapiens, UniProt Q9NYK1); assay type: cell-based; conditions: TLR7 expressing U2OS osteosarcoma cells
T1 construct: expressed in transfected cells
T1 sequence (Q9NYK1 27-1049): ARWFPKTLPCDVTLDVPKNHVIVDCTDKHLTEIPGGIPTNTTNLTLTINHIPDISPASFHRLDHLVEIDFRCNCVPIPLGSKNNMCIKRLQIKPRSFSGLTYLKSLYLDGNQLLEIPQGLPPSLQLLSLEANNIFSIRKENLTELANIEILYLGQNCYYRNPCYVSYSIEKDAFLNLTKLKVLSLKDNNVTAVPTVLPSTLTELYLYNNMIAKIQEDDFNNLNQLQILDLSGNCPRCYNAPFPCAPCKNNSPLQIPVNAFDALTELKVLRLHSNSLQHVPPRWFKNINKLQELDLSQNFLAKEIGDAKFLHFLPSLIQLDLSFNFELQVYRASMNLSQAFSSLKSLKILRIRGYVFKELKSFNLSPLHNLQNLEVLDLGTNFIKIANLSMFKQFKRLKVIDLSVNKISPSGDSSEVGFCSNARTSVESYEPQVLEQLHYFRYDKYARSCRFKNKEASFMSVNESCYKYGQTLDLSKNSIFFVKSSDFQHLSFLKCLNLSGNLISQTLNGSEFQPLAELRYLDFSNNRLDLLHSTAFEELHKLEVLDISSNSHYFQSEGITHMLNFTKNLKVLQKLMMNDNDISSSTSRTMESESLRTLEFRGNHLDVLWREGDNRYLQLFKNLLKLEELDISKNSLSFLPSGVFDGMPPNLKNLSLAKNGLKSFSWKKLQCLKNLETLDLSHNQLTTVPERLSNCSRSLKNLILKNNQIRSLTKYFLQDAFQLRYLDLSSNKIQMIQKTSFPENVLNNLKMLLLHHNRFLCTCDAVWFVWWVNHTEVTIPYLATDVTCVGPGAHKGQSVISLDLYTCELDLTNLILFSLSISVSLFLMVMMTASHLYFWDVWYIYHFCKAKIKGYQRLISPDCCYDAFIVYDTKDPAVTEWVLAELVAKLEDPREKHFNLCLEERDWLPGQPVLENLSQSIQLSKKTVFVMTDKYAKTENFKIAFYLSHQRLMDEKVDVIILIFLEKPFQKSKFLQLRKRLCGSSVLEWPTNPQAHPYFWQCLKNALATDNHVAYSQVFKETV

[1] = test system: native U2OS cell line lacking TLRs; assay: IL8 expression in native U2OS cell line lacking TLRs; assay type: cell-based, human

## CCOCc1nc2c(N)nc3ccccc3c2n1CC(C)(C)O [Site R848, Resiquimod]
TLR7
  IL8 expression upon agonist stimulation: increased IL8 expression in a dose response manner
[1]
  IL8 expression following treatment with agonist: No significant IL8 expression
